We go through one substance from paper PMC10036040.

Sequences of proteins named here, by UniProt entry; tags and fusion partners are left off.
UniProt P08670: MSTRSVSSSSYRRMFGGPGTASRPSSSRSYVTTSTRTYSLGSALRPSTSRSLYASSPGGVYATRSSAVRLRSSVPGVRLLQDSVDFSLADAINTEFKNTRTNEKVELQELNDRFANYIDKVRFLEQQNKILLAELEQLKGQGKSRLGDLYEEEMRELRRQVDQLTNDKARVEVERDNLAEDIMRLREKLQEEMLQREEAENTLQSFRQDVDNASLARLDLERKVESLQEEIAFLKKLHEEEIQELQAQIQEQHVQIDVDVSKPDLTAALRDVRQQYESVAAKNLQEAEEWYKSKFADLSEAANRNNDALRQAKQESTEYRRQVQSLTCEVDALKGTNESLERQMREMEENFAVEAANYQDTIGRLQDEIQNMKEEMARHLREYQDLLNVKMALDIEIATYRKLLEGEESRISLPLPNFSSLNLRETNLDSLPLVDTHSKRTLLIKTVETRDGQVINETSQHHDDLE

These are yes or no findings as the source states them, for the method shown. Binding seen in cells or lysates may run through a third protein. Some entries that bind do so weakly or less than the wild type.

This experiment deals with T1, Ubiquitin carboxyl-terminal hydrolase L3 (UCHL3) (human (endogenous in Hep3B and Huh7)) (UniProt P15374).
T1 sequence: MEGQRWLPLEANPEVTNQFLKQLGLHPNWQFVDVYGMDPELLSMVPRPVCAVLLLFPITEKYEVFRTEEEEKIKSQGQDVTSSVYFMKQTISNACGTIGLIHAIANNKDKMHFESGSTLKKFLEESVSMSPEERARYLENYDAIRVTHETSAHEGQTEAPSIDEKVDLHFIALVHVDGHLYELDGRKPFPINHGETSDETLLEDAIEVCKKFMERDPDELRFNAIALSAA
Kind of experiment: co-IP; Hep3B and Huh7 cell lysates (Cell lysis buffer for Western and IP); anti-UCHL3 antibody or IgG control on magnetic beads; Western blot for Vimentin.

On to Vimentin (from UniProt P08670 1-466), for which the binding result is reported as “binds”.
